In PubChem BioAssay AID2685 (National Center for Advancing Translational Sciences (NCATS), 2010):
The other results are listed elsewhere or left out. These are further read-outs of the screen, such as a control signal, another cell line or another target. No call is given for them. Compounds called inactive in the main read-out are mostly missing here. Words in brackets tell the shape of the fitted curve; partial curves, single points and poor fits give uncertain potencies.

Experiment: qHTS Assay for Lipid Storage Modulators in Drosophila S3 Cells;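 on cell number change: cells counted by Cell Tracker Red CMTPX staining in the red channel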
Conditions: BODIPY lipid droplet fluorescence, 18-24 h; for cell number change: measured here: cell count max response, cells fed with added oleic acid
In short: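 Laser-scanning cytometry quantifies lipid droplet accumulation (500–530 nm total intensity; droplet/cell object ratio) in oleic acid-fed (400 uM added) Drosophila S3 cells treated with a concentration series. 20 uM Triacsin C defined 100% inhibition.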

[1] = measured here: lipid fluorescence (Fed channel) AC50, cells fed with added oleic acid
[2] = measured here: cell number channel AC50, cells fed with added oleic acid

SMILES	cell number change	AC50 [1]	AC50 [2]
O=C(CCn1cnc(-c2ccccc2)c1-c1ccccc1)N/N=C/c1ccc(O)cc1	16.9%	16.4 µM [rising, single point]	
CCN(CC(=O)Nc1ccccc1OC)C(=O)C1CC2C=CC1C2 (configuration not stated)	0.557%	1.16 µM [falling, full curve]	6.51 µM [rising, single point]
Cc1ccc(Cl)c(OCC(O)CN(CCO)CCO)c1 (configuration not stated)	-33.9%	2.31 µM [rising, partial curve, poor fit]	29.1 µM [falling, single point]
Cn1c(Cc2ccccc2)nnc1SCC(=O)Nc1cccc(S(=O)(=O)NC2=NCCCCC2)c1	10.7%		
CNS(=O)(=O)c1ccc(NC(=O)Nc2cccc(F)c2)cc1	-41.1%		16.4 µM [falling, partial curve, poor fit]
C/C(=N\NC(N)=O)C1(C)CCCCC1	-53.2%	3.66 µM [falling, partial curve]	29.1 µM [falling, single point]
O=C(CNC(=O)Cc1ccccc1)N=Nc1c(O)[nH]c2ccccc12	22.2%		
CN(Cc1c(C(=O)N/N=C/c2ccccc2F)nnn1-c1nonc1N)c1ccccc1	-18.3%	16.4 µM [falling, partial curve, poor fit]	
Cc1ccc(C)c(OCc2cc(C(=O)N(C)Cc3nccn3C)no2)c1	0.984%	4.11 µM [rising, single point]	
Cn1c(SCC(=O)Nc2ccccc2F)nnc1-c1cc2ccccc2o1	25%		
Cc1ccc(CNC(=O)COC(=O)c2ccc(Br)cc2)cc1	-47.1%	0.731 µM [falling, full curve, poor fit]	0.411 µM [falling, full curve, poor fit]
COc1ccc(-c2nc(S(=O)(=O)c3ccccc3)c(N3CCOCC3)o2)cc1	18.4%	2.06 µM [rising, full curve]	
O=S(=O)(c1ccc(Br)c2nsnc12)N1CCOCC1	3.69%	0.164 µM [rising, full curve, poor fit]	
O=C(COC(=O)COc1ccc(Cl)cc1Cl)NC1CCCC1		29.1 µM [rising, single point]	
O=c1cc(-c2c(F)c(F)c(F)c(F)c2F)oc2c(F)c(F)c(F)c(F)c12	-53.5%	8.2 µM [falling, partial curve]	2.91 µM [falling, partial curve]
CCN1CCN(C(=O)CCc2nc3ccccc3n2-c2ccccc2)CC1	42.6%	18.4 µM [rising, single point]	
CC(C)C[C@H](NC(=O)c1nc[nH]c1C(=O)N1CCNCC1)C(=O)OCc1ccccc1	-9.29%	29.1 µM [rising, single point]	
CC1=CC(C#N)(C#N)C(C#N)(C#N)C(c2ccccc2)N1 (configuration not stated)	-1.29%		
CN1CCN(C(=O)c2cc(=O)c3cc(Cl)ccc3o2)CC1		20.6 µM [rising, single point]	

SMILES	cell number change	AC50 [1]	AC50 [2]
Cc1ccc(S(=O)(=O)N2CCC(C(=O)OCC(=O)N3CCCC(C)C3)CC2)cc1C (configuration not stated)	-50%	2.06 µM [rising, single point]	6.51 µM [rising, partial curve, poor fit]
COc1cccc(OCC(O)CNC(=O)c2oc3ccc(C)cc3c2C)c1 (configuration not stated)	-5.51%	29.1 µM [rising, single point]	
COc1ccccc1NC(=O)CSc1ccc(-c2ccc(-n3ccnc3)cc2)nn1	-14.5%	4.11 µM [rising, single point]	3.26 µM [rising, single point]
Cc1ccc(CSc2nnc(-c3ccncc3)n2N)cc1			2.31 µM [rising, partial curve]
CC(C)CC(=O)Nc1ccc(S(=O)(=O)NCc2ccco2)cc1	-29.8%	0.326 µM [falling, partial curve, poor fit]	0.13 µM [falling, full curve, poor fit]
O=C(Nc1ccccc1)N1CC=C(c2ccc(F)cc2)CC1		6.51 µM [rising, single point]	3.26 µM [rising, partial curve]
CC1(C)Cc2c(sc(NC(=O)C(=O)N3CCCCC3)c2C(=O)O)CO1	74.6%		29.1 µM [rising, single point]
CCN(CC)S(=O)(=O)c1ccc(OC)c(NC(=S)Nc2ccc(C)c(C)c2)c1		3.26 µM [rising, full curve]	0.82 µM [falling, single point]
Cc1[nH]n(-c2cccc3ccccc23)c(=O)c1/C=N/c1sc2c(c1C#N)CCC2	-10.6%	0.58 µM [rising, single point]	
Cc1ccc(S(=O)(=O)CCC(=O)c2ccc(O)cc2O)cc1	6.08%		
Cc1ccccc1NC(=S)N(CCN1CCCCCC1)Cc1cccs1	50.2%		10.3 µM [rising, partial curve, poor fit]
S=C(NC1CC1)N1CCN(C(=S)NC2CC2)CC1	36.8%	29.1 µM [rising, single point]	32.6 µM [rising, partial curve, poor fit]
O=C(OC1CCCCC1=O)c1cc(Cl)ccc1[N+](=O)[O-] (configuration not stated)	-111%	0.259 µM [falling, partial curve]	23.1 µM [falling, partial curve]
CC(=O)c1c(C)[nH]c(C(=O)COc2ccc3c(C)cc(=O)oc3c2)c1C	-16.8%	1.84 µM [falling, partial curve]	
COC(=O)c1ccc2c(=O)n(-c3ccccc3)c(SCN3C(=O)c4ccccc4C3=O)nc2c1	-4.87%		
CCC(c1nnnn1C(C)(C)CC)N(CCN1CCOCC1)Cc1cc2cc(C)ccc2[nH]c1=O (configuration not stated)	2.95%	0.411 µM [rising, full curve, poor fit]	0.00461 µM [rising, full curve, poor fit]
O=C(Nc1sc2c(c1C(=O)NC1CCCCC1)CCC2)c1ccco1		0.146 µM [rising, full curve, poor fit]	0.411 µM [rising, single point]
O=C(O)CCCCCN1C(=O)C(O)=C(C(=O)/C=C/c2ccccc2)C1c1cccc([N+](=O)[O-])c1 (configuration not stated)	3.5%		
CC(C)[C@H](NC(=O)c1ccccc1)C(=O)OCC(=O)N1CCCCCC1	-70.9%	4.61 µM [falling, partial curve]	29.1 µM [falling, single point]

Complete entries as entered above.
COc1ccccc1NC(=O)CSc1ccc(-c2ccc(-n3ccnc3)cc2)nn1 is entered as cell number change: -14.5%; AC50 [1]: 4.11 µM [rising, single point]; AC50 [2]: 3.26 µM [rising, single point]
CC(=O)c1c(C)[nH]c(C(=O)COc2ccc3c(C)cc(=O)oc3c2)c1C is entered as cell number change: -16.8%; AC50 [1]: 1.84 µM [falling, partial curve]

As a working copy, some entries already given.
SMILES	cell number change	AC50 [1]	AC50 [2]
O=C(O)CCCCCN1C(=O)C(O)=C(C(=O)/C=C/c2ccccc2)C1c1cccc([N+](=O)[O-])c1 (configuration not stated)	3.5%		
CC(C)[C@H](NC(=O)c1ccccc1)C(=O)OCC(=O)N1CCCCCC1	-70.9%	4.61 µM [falling, partial curve]	29.1 µM [falling, single point]

Additional results

SMILES	cell number change	AC50 [1]	AC50 [2]
COC(=O)c1ccc(NC(=O)C2CCCN2C(=O)OCc2ccccc2)cc1 (configuration not stated)	40.6%		23.1 µM [rising, single point]
COc1ccc(CC(=O)NNC(=O)CSc2nc(C)c(C)c(=O)[nH]2)cc1	33.7%		
O=[N+]([O-])c1ccc(/C=N/Nc2nc(-c3ccccc3)c3cc(Br)ccc3n2)o1			0.231 µM [rising, full curve, poor fit]
Cc1cc(C(=O)NCCCn2ccnc2)cs1	15.4%	16.4 µM [rising, single point]	
COc1ccccc1OC(=O)CCN1c2ccccc2Sc2ccccc21	11.3%	6.51 µM [rising, partial curve]	
CC(C)Oc1ccc(CCc2nnc(SCC(=O)O)n2-c2ccccc2)cc1	-51.9%		
O=C(Nc1ccccn1)C1CCCN(c2ncnc3c2nc2n3CCCCC2)C1 (configuration not stated)	-26.7%	1.84 µM [falling, partial curve]	2.91 µM [falling, full curve, poor fit]
CC(=O)Nc1ccc(OCC(O)CN2CCN(S(=O)(=O)c3ccc(NC(C)=O)cc3)CC2)cc1 (configuration not stated)	-15.1%	0.411 µM [falling, full curve]	0.082 µM [falling, full curve, poor fit]
CCC(=O)c1ccc(OCCn2cnc3ccccc32)cc1	77.2%	0.103 µM [rising, full curve, poor fit]	20.6 µM [rising, single point]
COCCN(C(=O)CSc1nnc(C)n1Cc1ccccc1)c1c(N)n(CC(C)C)c(=O)[nH]c1=O	-47.1%	25.9 µM [falling, single point]	32.6 µM [falling, single point]
CCC1(c2ccccc2)C(=O)NCNC1=O		29.1 µM [falling, single point]	
COc1ccc(C(C)=O)c(Oc2nc(CN3CCOCC3)nc3scc(-c4cccs4)c23)c1	0.132%		
COc1ccc(-c2cc(-c3nnc(COC(=O)c4ccncc4)o3)c3ccccc3n2)cc1OC	3.63%	1.64 µM [rising, partial curve, poor fit]	
Nc1nnc(SCC(=O)OCC(=O)c2ccccc2Br)s1	-4.08%		
CC(NCc1ccccc1O)c1ccccc1 (configuration not stated)	-106%	29.1 µM [falling, partial curve]	25.9 µM [falling, partial curve]
C/C(=N/N=C/c1ccc(N(C)C)cc1)c1ccccc1		0.092 µM [rising, full curve, poor fit]	
CCOC(=O)c1cc(-c2ccccc2)nc2nc(N(CC)CC)sc12	-25.7%	6.51 µM [rising, single point]	
O=[N+]([O-])c1ccc2c(c1)C(N1CCOCC1)/C(=C/COc1ccc3ccccc3c1Br)O2 (configuration not stated)		29.1 µM [rising, single point]	1.46 µM [rising, partial curve]
